Reference: PMC7819943, “Rice protein-binding microarrays: a tool to detect cis-acting elements near promoter regions in rice”
The list shows a part of the results.

Chains of the proteins cited; added tags and fusions are not shown.
UniProt Q0JBA9, entry or part of it: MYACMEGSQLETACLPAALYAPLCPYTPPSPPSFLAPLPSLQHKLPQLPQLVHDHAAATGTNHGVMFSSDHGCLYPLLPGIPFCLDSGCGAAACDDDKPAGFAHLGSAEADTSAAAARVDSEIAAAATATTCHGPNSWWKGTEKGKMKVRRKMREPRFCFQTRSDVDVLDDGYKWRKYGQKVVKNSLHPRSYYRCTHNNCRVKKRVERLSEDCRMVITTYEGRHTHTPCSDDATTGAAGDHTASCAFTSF

Target: OsWRKY34 (Oryza sativa, UniProt Q0JBA9 1-250)
Experiment: protein-binding microarray (RPBM); PBS, 2% BSA, 51.3 ng/ul salmon testes DNA, 50 uM zinc acetate, 200 nM TF, 25 C, 1 h; high values mean tight binding
Conditions: protein: recombinant; tags: N-terminal polyhistidine and DsRed monomer fusion (pET32a); label: CyDye5-dUTP incorporated in the synthesized complementary strand; 3' TTTTT single-stranded linker to array surface; dsDNA, one strand shown
Outline: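 Transcription factors were made in E. coli BL21-CodonPlus as N-terminal fusions to a polyhistidine tag and DsRed, then purified on Ni–NTA. After primer extension with Cy5-dUTP and blocking with 2% BSA, a custom Agilent array was exposed for 1 h at 25 °C to 200 nM protein in PBS, 2% BSA, salmon testes DNA and 50 µM zinc acetate. Washed arrays were scanned on an Axon 4000B, and the binding signal is per-feature fluorescence intensity in arbitrary units.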

Row | Sequence | binding signal
1 | CCGCCACCACCCGTGCCCGCCGCATCCAGCTCATCTCCGTCGGAGTCACCTAGTGCAG | 10100 fluorescence intensity (a.u.)
2 | GATCTCTCTCACACAGTGCTGCATGCTTCCTTCCATGAATCGGAGTCACCTAGTGCAG | 9220 fluorescence intensity (a.u.)
3 | TTCCTATGTTTTTCCTGTGTTTTGTAATTCTCTGTTTTACCGGAGTCACCTAGTGCAG | 10600 fluorescence intensity (a.u.)
4 | TTCTCCATTTTTCACCATTTTTAGGTCAGTGTATTGCTTACGGAGTCACCTAGTGCAG | 9910 fluorescence intensity (a.u.)
5 | GCTTGCATTGCTTCACCATAACTCACCTTCTTTTGCATGACGGAGTCACCTAGTGCAG | 9860 fluorescence intensity (a.u.)
6 | AGGCTCGATTGGGTTCATGGGGTAAAACTATACTTTCATACGGAGTCACCTAGTGCAG | 9580 fluorescence intensity (a.u.)
7 | CTAGCTTTGAGGTGGAGGTGGTGGTGGAGGAGGAGGAGGACGGAGTCACCTAGTGCAG | 12600 fluorescence intensity (a.u.)
8 | GACTCGGTCTCGTCCTCCGCTCTCTACATATCCCCGGATCCGGAGTCACCTAGTGCAG | 11100 fluorescence intensity (a.u.)
9 | AATTCACGCATGTATTAGCTCTTTTTTTTCTCGAAAATTTCGGAGTCACCTAGTGCAG | 8200 fluorescence intensity (a.u.)
10 | CCCGCTGCTTGCCACCTCTCCTCCGTGTGCGCCACCGCCGCGGAGTCACCTAGTGCAG | 8220 fluorescence intensity (a.u.)
11 | GGACAACCGGATAGTAGTTGCTCTCTCTTTCCGTCTTTTTCGGAGTCACCTAGTGCAG | 10600 fluorescence intensity (a.u.)
12 | GCACACTGACACACAGTCACACACCATCCCGCTCTCTCCACGGAGTCACCTAGTGCAG | 8430 fluorescence intensity (a.u.)
13 | GCTTGGTGTTTGTGCTTGTTGTTGCGTTGCGTTTGCTTATCGGAGTCACCTAGTGCAG | 12400 fluorescence intensity (a.u.)
14 | ACCCTCCGCACTTCATCTCGCATCGCGTTCGCCGCCGCTCCGGAGTCACCTAGTGCAG | 14200 fluorescence intensity (a.u.)
15 | GTCTACTATCCTCTTTCATTGTCTTTTTGTTGGTTGGTTTCGGAGTCACCTAGTGCAG | 17600 fluorescence intensity (a.u.)
16 | AATCAGAATATTACCTTCTTGTATTTGTTCTCTGTAGGAACGGAGTCACCTAGTGCAG | 8870 fluorescence intensity (a.u.)
17 | CCGGTCTAAGGGTACTCATATAAATTTTTTTTCTTTTGTTCGGAGTCACCTAGTGCAG | 8560 fluorescence intensity (a.u.)
18 | ACACATTCAATTTTATTCATATATCCCTTACCCTTTCATTCGGAGTCACCTAGTGCAG | 8580 fluorescence intensity (a.u.)
19 | GGTTTGGAGTTTGGACTCGGGTCGGTGTTGCGCTTTGCCCCGGAGTCACCTAGTGCAG | 8110 fluorescence intensity (a.u.)
20 | AAAACAAACTCTGAGTTTCCGTGCCAACGTTTGACTATCCCGGAGTCACCTAGTGCAG | 8320 fluorescence intensity (a.u.)
21 | TTTGTTTTGTTCGTTACTCTGAAACAACCAAGTTGTTTTTCGGAGTCACCTAGTGCAG | 9090 fluorescence intensity (a.u.)
22 | CAGGGGTATGGTCGGATTCCATATTCTAACCTATATTTTCCGGAGTCACCTAGTGCAG | 8740 fluorescence intensity (a.u.)
23 | GTCCCAATCTGAATTTCCGGTGTTCAGTTCTACATCGCTTCGGAGTCACCTAGTGCAG | 8630 fluorescence intensity (a.u.)
24 | TAGTTAGGTGGCCATTCTTCTCCATCTCCGGCGAGTTGATCGGAGTCACCTAGTGCAG | 8320 fluorescence intensity (a.u.)
25 | GTGTCGTCCTAGCCTCCGGTCGCATTCGGCCACATCCAGCCGGAGTCACCTAGTGCAG | 8170 fluorescence intensity (a.u.)
26 | AGGGGAAATCTCGTTTTTTTCATGCATTTTGCATTGTACTCGGAGTCACCTAGTGCAG | 10100 fluorescence intensity (a.u.)
27 | ACCGTATAATTTTGCAAAATGATCCCTGTTTTGGACTTGGCGGAGTCACCTAGTGCAG | 8270 fluorescence intensity (a.u.)

Not a retest: entries from further up.
Row | Sequence | binding signal
6 | AGGCTCGATTGGGTTCATGGGGTAAAACTATACTTTCATACGGAGTCACCTAGTGCAG | 9580 fluorescence intensity (a.u.)
7 | CTAGCTTTGAGGTGGAGGTGGTGGTGGAGGAGGAGGAGGACGGAGTCACCTAGTGCAG | 12600 fluorescence intensity (a.u.)

Continuation:

Row | Sequence | binding signal
28 | GGGATTTGGTGGCTGCTCGCCTCTCGCGTTTCTTTTGCTGCGGAGTCACCTAGTGCAG | 10200 fluorescence intensity (a.u.)
29 | CTCTGGTTTTAATAGTTGTGGTCAGTAGTTAAGGAACTTACGGAGTCACCTAGTGCAG | 9140 fluorescence intensity (a.u.)
30 | TGTTTTGTGTTGGTTTATGTTTCTTTGAATGTGAGTTGACCGGAGTCACCTAGTGCAG | 9220 fluorescence intensity (a.u.)
31 | AAATTAGTTTTGCAGAGAGTACCAAGTTTGATTATGTCTTCGGAGTCACCTAGTGCAG | 8320 fluorescence intensity (a.u.)
32 | ATGATAGGTCCTGGACTCACAAGTTATTGAGAACGGCACGCGGAGTCACCTAGTGCAG | 50900 fluorescence intensity (a.u.)
33 | GTGGGTTTCTAGCATCATAGGGGTATTGTAGTAACTTCCTCGGAGTCACCTAGTGCAG | 17400 fluorescence intensity (a.u.)
34 | ATGGGGTTGACTTTTTTTTAGGGATTGCTAGGTGCACCGTCGGAGTCACCTAGTGCAG | 20100 fluorescence intensity (a.u.)
35 | GATCCTCGGTTCCTCACCACACATCCTACCTAACAAACTCCGGAGTCACCTAGTGCAG | 8730 fluorescence intensity (a.u.)
36 | AACGGCAGCAGATCCACCAAACCCCACACCCTCTCCAAATCGGAGTCACCTAGTGCAG | 8600 fluorescence intensity (a.u.)
37 | TTTTTCCTATTCCTCTATTTTTTTTACAACCCTGCGATTCCGGAGTCACCTAGTGCAG | 9990 fluorescence intensity (a.u.)
38 | GCTAGTGGTGTTTAGTTTAGAAATCCTTATTGTCAGTATACGGAGTCACCTAGTGCAG | 8370 fluorescence intensity (a.u.)
39 | ATTGGATCCGGGGAGGAGGAGGTGGGGTTCGGTTTCGTGCCGGAGTCACCTAGTGCAG | 11600 fluorescence intensity (a.u.)
40 | GTGCGGTGATGTTTTTCTTCCTGTTGCATCATTTTAACTTCGGAGTCACCTAGTGCAG | 11300 fluorescence intensity (a.u.)
41 | CACCACCCACTCGACGCCGCCTTGCCTCACCACTGCTGCCCGGAGTCACCTAGTGCAG | 9620 fluorescence intensity (a.u.)
42 | AGCTGCCATGGCGATTCCTGGTTCGTTGTTCTATCGCTCACGGAGTCACCTAGTGCAG | 8200 fluorescence intensity (a.u.)
43 | GGGGATAACTTGTGGGAAATTGGGTAGAAAGGGAGTTTTGCGGAGTCACCTAGTGCAG | 9850 fluorescence intensity (a.u.)
44 | CACCGCCGTCCACCGTCATCCTTGACCGCCGCCGCTGGCCCGGAGTCACCTAGTGCAG | 11400 fluorescence intensity (a.u.)
45 | CCTTTCATTGTGTGCCCGTTCTGTGTCTACCTTTAATTTACGGAGTCACCTAGTGCAG | 11400 fluorescence intensity (a.u.)
46 | TCTCTTAGCTAAAGTTCTTTATGTTTGACTAAGTTTATCGCGGAGTCACCTAGTGCAG | 9420 fluorescence intensity (a.u.)
47 | TACTGTCTGTCAACACACTTCATGATTTCTCATCAAATATCGGAGTCACCTAGTGCAG | 10400 fluorescence intensity (a.u.)
48 | AATCAACTTCAGGTTGTCTTCGAGATGCATTTGTCCTGCCCGGAGTCACCTAGTGCAG | 9590 fluorescence intensity (a.u.)
49 | GACACACATCTCCGTACCAACGTACCTAGTCAAACACGCGCGGAGTCACCTAGTGCAG | 8270 fluorescence intensity (a.u.)
50 | AAAAAAGTCCACACAGATCCATTCCTCACATTTTACATTTCGGAGTCACCTAGTGCAG | 9510 fluorescence intensity (a.u.)
51 | ATAAACATAGAGGGTTGTTATTTTGCTAGTTATCATTTATCGGAGTCACCTAGTGCAG | 8930 fluorescence intensity (a.u.)
52 | CTATAGCACAACGACCTTATTCTATCTCTCGTCAACGCTTCGGAGTCACCTAGTGCAG | 9000 fluorescence intensity (a.u.)
53 | CCCTCACATGTGTTGTGTTTTGCTTGCTTGTGTGATTAGTCGGAGTCACCTAGTGCAG | 11600 fluorescence intensity (a.u.)
54 | TCTTTCCTTATTTTCCCATGTTATTTTTCCATTTTCCCCTCGGAGTCACCTAGTGCAG | 9620 fluorescence intensity (a.u.)
